From PubChem BioAssay AID2551 (National Center for Advancing Translational Sciences (NCATS), 2010)
Screen size: about 310,000 compounds; about 17,000 (5.5%) were called active. Inconclusive results, whose numbers are uncertain, are shown with a selection of clear calls. Calls follow the shape of the dose curve; as a rule, active = well fitted inhibition curve with a large enough effect; inconclusive = small, poorly fitted or top-dose-only effect, or effect the other way; inactive = no such curve, though single readings can be large or run the other way. Where the call is inconclusive, the potency comes from a doubtful curve fit.

By UniProt entry, the sequences of proteins in these tests, tags left out. Where a name states a change or a piece, a line headed by the entry shows the natural chain unless it says otherwise.
UniProt P51450: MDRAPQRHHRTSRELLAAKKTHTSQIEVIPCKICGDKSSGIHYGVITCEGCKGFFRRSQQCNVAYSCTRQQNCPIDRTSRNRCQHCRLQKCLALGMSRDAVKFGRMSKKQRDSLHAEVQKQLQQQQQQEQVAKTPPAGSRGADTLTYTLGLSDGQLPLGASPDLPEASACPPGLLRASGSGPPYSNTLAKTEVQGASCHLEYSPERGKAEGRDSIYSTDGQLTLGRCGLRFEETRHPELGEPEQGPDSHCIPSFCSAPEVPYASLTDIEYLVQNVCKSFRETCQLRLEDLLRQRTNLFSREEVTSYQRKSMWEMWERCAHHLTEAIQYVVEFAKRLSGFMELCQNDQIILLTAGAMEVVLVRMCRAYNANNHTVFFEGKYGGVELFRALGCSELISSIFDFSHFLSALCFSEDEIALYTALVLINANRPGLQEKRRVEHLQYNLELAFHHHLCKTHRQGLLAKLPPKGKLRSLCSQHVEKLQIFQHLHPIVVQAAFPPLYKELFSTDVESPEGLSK

What follows are compounds tested against Nuclear receptor ROR-gamma (Mus musculus) (UniProt P51450) (assay: qHTS for inhibitors of ROR gamma transcriptional activity). Details: Drosophila S2 Gal4-RORgamma UAS-luciferase reporter, 20 h; activity change, negative = inhibition: at 53.6 µM (top of the series).
Procedure, shortened: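 Drosophila S2 cells stably expressing Gal4-DBD/mouse RORγ fusion under metallothionein promoter plus UAS-luciferase; compound 1 h, then 700 uM CuSO4 induction for 20 h at ambient temperature; inhibition read as reduced luminescence.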
% is scaled to controls: 0 for no effect and ±100 for the full control effect; potency is read from the fitted curve at half-maximal effect.
Also: nearly all actives have a fitted effect of over 60% in size.

Potency, inconclusive:
CCOC(=O)N1CCC(N2C(=O)c3ccccc3C2Nc2ccc(Cl)cn2)CC1 (centres undefined) 35.5 µM [inhibitor, single point], CCN(CC)C(=O)c1[nH]cnc1C(=O)N[C@@H](CC(C)C)C(=O)OC(C)(C)C 17.8 µM [inhibitor, single point], COc1cc(NC(=O)C/C(C)=N/NC(=O)Cc2ccc(Cl)cc2)c(OC)cc1Cl 14.1 µM [inhibitor, single point], CCCCNC(=S)NNC(=O)c1ccc2c(c1)OCO2 35.5 µM [inhibitor, single point], CCCCC(O)(c1ccc(F)cc1)C(CN1CCOCC1)c1ccc(Cl)cc1 (centres undefined) 15.8 µM [activator, single point], CCN(C(=S)NC(=O)CCc1ccccc1)c1ccccc1 35.5 µM [inhibitor, single point], Cn1c(SCc2ccc(Br)cc2)nc2c(c1=O)SCC2 4.47 µM [activator, single point], CCC(=O)Nc1nc2ccc(S(C)(=O)=O)cc2s1 35.5 µM [activator, single point], Cc1cccc2cc(CN(Cc3ccco3)C(c3nnnn3CCc3ccccc3)C(C)C)c(=O)[nH]c12 (centres undefined) 35.5 µM [inhibitor, single point], COc1cccc(Oc2ccc(N/C=C/C(=O)C(C)(C)C)cc2)c1 35.5 µM [inhibitor, single point], CCc1nnc(NC(=O)CSc2nnc(-c3ccncc3)n2C)s1 35.5 µM [activator, single point], O=C(NCc1ccc(F)cc1)c1cc(C(=O)C2CC2)c[nH]1 11.2 µM [activator, partial curve], CN(c1ccc(C(=O)Nc2cccnc2)cc1)S(=O)(=O)c1ccccc1 10 µM [activator, partial curve], COc1cc(NC(=O)Nc2cccc([N+](=O)[O-])c2)cc(OC)c1 35.5 µM [activator, single point], C/C(N)=C(/C#N)C(=O)CSc1nc2cc(Cl)ccc2s1 22.4 µM [activator, partial curve], Cc1ccc(NC(=O)c2ccc(Br)o2)cc1S(=O)(=O)N(C)C 2.82 µM [activator, single point], COc1ccc(Oc2ncc3nc(-c4ccc(Cl)cc4)c(=O)n(CCC#N)c3n2)cc1 35.5 µM [activator, single point], Cc1ccc(C(O)c2nc3ccccc3n2C(C)C)cc1 (centres undefined) 35.5 µM [inhibitor, single point], CN(C)S(=O)(=O)N1CCC(Oc2ccc(C(=O)N3CCCCCCC3)cc2)CC1 10 µM [activator, partial curve], COc1ccc(CNc2ncnc3sccc23)cc1OC 3.16 µM [activator, partial curve, poor fit], Cc1cc(SCC(=O)NC(=O)c2cccn2C)nc2ccccc12 22.4 µM [inhibitor, single point], Cc1ccc(Nc2nc(/N=C/NO)n[nH]2)cc1C 12.6 µM [inhibitor, single point], Cc1ccccc1C(=O)NC1CCSC1=O (centres undefined) 17.8 µM [activator, single point], Nc1c(C(=O)c2ccc(Cl)cc2)sc2nc3c(cc12)CCC3 6.31 µM [activator, partial curve, poor fit], O=C(c1ccccc1)N1CCN(Cc2c[nH]c3ccccc23)CC1 6.31 µM [inhibitor, single point], N#CC(C#N)=C1C(=O)N(CCN2CCOCC2)c2ccccc21 12.6 µM [inhibitor, single point], Fc1ccc(NC(=S)N2CCc3ccccc3C2)c(F)c1 17.8 µM [inhibitor, single point], CC(C)CC(NC(=O)CC12CC3CC(CC(C3)C1)C2)C(=O)NC1=NCCS1 (centres undefined) 25.1 µM [inhibitor, single point], CC1(C)CC2CC(C)(CN2S(=O)(=O)c2cccc(N)c2)C1 (centres undefined) 0.794 µM [activator, full curve, poor fit], COc1ccc(C(NC(C)=O)c2ccc3cccnc3c2O)c(OC)c1 (centres undefined) 31.6 µM [inhibitor, single point], COc1cc(Cl)ccc1OCc1cc(C(=O)NCc2cc(C(C)C)no2)no1 1.26 µM [activator, full curve, poor fit], O=C(C1COc2ccccc2O1)N1CCN(c2ccccc2Cl)CC1 (centres undefined) 5.01 µM [activator, partial curve], Cc1occc1-c1n[nH]c(=S)n1C 10 µM [inhibitor, partial curve], CC1=NN(c2ccccc2)C(=O)/C1=C/c1cccs1 15.8 µM [inhibitor, single point], CS(=O)(=NS(=O)(=O)c1ccc(Cl)cc1)c1ccccc1 (centres undefined) 25.1 µM [activator, single point], COc1ccc(C2CC(C(F)(F)F)n3nc(C(=O)Nc4c(C)n(C)n(-c5ccccc5)c4=O)c(Cl)c3N2)cc1 (centres undefined) 20 µM [activator, single point], O=C(Cn1nnc(-c2ccccc2NC(=O)c2cccs2)n1)Nc1ccccc1 35.5 µM [activator, single point], O=C(Nc1ncn[nH]1)c1ccc(Cl)c(S(=O)(=O)Nc2ccc(Cl)cc2)c1 20 µM [inhibitor, single point], CCOc1ccc(C2C(C#N)=C(N)SC(N)=C2C#N)cc1OC 35.5 µM [inhibitor, single point], Cc1c(NC(=S)N/N=C/c2ccc(Br)cc2)c(=O)n(-c2ccccc2)n1C 11.2 µM [inhibitor, single point], COc1cccc(NC(=O)C(Sc2nc3ccccc3c(=O)n2CC(C)C)c2ccccc2)c1 (centres undefined) 35.5 µM [inhibitor, single point]

Potency, active:
Cn1/c(=N/N=C/c2ccccn2)sc2ccccc21 10 µM, COc1ccccc1NC(=S)N(C(C)C)C(C)c1ccccn1 (centres undefined) 12.6 µM, CCOc1ccc(NC(=S)NC23CC4CC(CC(C4)C2)C3)cc1 3.16 µM, O=C1OC(O)C(C(Cl)Cl)=C1Cl (centres undefined) 2.24 µM, CCN(CC(=O)Nc1ccc2c(c1)CCC2)Cc1nc2ccccc2c(=O)[nH]1 5.01 µM, CCCNC(=O)c1ccc(-c2nc3ccccc3s2)s1 11.2 µM, Cc1ccc(/C=C/C(=O)c2ccccc(=O)c2O)c(C)c1 7.08 µM, COc1ccc2[nH]c(C)c(CCNC(=S)Nc3cc(C)cc(C)c3)c2c1 2.24 µM, Cc1ccc(C(=O)N/N=C(/CC(=O)c2cccs2)C(F)(F)F)cc1 11.2 µM, CC(c1n[nH]c(=S)n1Cc1ccccc1)N(C)C (centres undefined) 1.78 µM, Brc1cc2c(cc1/C=N/Nc1nc(N3CCCCC3)nc(N3CCCCC3)n1)OCO2 1.78 µM, Cc1cccc(/C=N/n2c(COc3ccccc3)n[nH]c2=S)c1 7.08 µM, Cc1cc(C)n2[nH]c(=O)c(N=Nc3cccc(C(F)(F)F)c3)c2n1 12.6 µM, COc1ccc2[nH]cc(CCNC(=S)NCCc3ccccc3)c2c1 11.2 µM, O=C(Nc1nccs1)c1ccc(Cl)c(S(=O)(=O)N2CCOCC2)c1 15.8 µM, CC(=O)Oc1ccc2c(c1)OC(c1ccccc1)CC21CC(C)(C)NC(=S)N1 (centres undefined) 10 µM

Activity change, negative = inhibition, inactive:
CCCc1ccc(OCc2nc(-c3ccc(NC(=O)c4ccco4)cc3)no2)cc1 14.3%, O=C(Oc1ccc(C(=S)N2CCOCC2)cc1)c1cccc(Cl)c1 -20.9%, O=C(O)CCC(=O)NNC(=O)COc1ccc2ccccc2c1Br -18.5%, Cn1c(=O)n2n(c1=O)[C@H]1[C@H](O)[C@H]3O[C@@H]3/C(=N/OCc3ccccc3)[C@@H]1CC2 0.0264% [at 10 µM], CN=C(Nc1ccc(Br)cc1)SC1CC(=O)N(c2ccc(OC)cc2)C1=O (centres undefined) 44.8%, COc1cccc(-c2c(C#N)c(SC)nc3cc(C)nn23)c1 1.37%, COC(=O)N/N=C\c1ccc(OC(=O)c2ccco2)cc1 11.2%, COc1ccc(NC(=O)CSc2nnc(-c3ccccc3C)n2N)cc1 -14.2%, Cc1ccn(C(=O)c2ccc(NC(=O)C3CC3)cc2)n1 12.9%, CN(C)CCCNC(=O)c1cc2sc3ccccc3c2s1 -20%, COC(=O)C1=C(C(=O)OC)[C@@H]2N(C)c3ccc(OC)cc3[C@@]23C[C@@H](C(=O)OC)N=C3N1 34.1%, O=C(Nc1cccnc1Cl)c1cc(-c2ccc(Br)cc2)on1 9.38%, Cc1cccc(NCc2ccccc2OCc2ccccc2F)c1 19%, COc1ccc(NC(=O)Nc2cccc(C)n2)cc1 0.123%, Cc1ccc(-c2nnc3n2N=C(c2ccc(Br)cc2)CS3)cc1 2.21%, CCOC(=O)NC(C)N1C(=O)C2C3C=CC(C3)C2C1=O (centres undefined) 4.4%, CC(C)CCNC(=O)C12CN(Cc3ccccc3)CC1C(c1cccc([N+](=O)[O-])c1)=NO2 (centres undefined) 27.6%
